From the supplement of paper PMC12823440, “Inhibitors supercharge kinase turnover through native proteolytic circuits” (Nature, 2025)
The other results are listed elsewhere or left out. Hit calls seldom repeat between salt and free forms of one compound.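 Kinases, fused to nanoluciferase, were expressed in K562 cells; luminescence was measured every 4 h from 2 to 18 h as percent of control (DMSO = 100%, positive control = 0%). A time point is decreased if signal falls significantly (2 sigma). Hits were called by the authors by a rule that is not shown; the count of time points alone does not decide it.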

Amino acid sequences for entries named in this document (tags omitted). A change or cut given only in a name is not applied to a line headed by its entry.
UniProt Q15208: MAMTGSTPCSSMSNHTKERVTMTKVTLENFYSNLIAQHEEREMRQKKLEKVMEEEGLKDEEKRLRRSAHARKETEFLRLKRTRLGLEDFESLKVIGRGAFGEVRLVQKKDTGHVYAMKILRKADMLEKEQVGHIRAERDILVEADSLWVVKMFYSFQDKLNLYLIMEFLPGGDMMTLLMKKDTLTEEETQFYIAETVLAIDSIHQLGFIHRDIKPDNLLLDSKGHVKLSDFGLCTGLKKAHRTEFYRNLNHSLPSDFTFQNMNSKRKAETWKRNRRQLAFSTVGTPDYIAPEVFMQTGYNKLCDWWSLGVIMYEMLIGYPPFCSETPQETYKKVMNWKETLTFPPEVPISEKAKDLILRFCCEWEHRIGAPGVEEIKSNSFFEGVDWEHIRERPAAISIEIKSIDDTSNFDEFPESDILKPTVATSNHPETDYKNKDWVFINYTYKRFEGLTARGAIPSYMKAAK
UniProt P29597: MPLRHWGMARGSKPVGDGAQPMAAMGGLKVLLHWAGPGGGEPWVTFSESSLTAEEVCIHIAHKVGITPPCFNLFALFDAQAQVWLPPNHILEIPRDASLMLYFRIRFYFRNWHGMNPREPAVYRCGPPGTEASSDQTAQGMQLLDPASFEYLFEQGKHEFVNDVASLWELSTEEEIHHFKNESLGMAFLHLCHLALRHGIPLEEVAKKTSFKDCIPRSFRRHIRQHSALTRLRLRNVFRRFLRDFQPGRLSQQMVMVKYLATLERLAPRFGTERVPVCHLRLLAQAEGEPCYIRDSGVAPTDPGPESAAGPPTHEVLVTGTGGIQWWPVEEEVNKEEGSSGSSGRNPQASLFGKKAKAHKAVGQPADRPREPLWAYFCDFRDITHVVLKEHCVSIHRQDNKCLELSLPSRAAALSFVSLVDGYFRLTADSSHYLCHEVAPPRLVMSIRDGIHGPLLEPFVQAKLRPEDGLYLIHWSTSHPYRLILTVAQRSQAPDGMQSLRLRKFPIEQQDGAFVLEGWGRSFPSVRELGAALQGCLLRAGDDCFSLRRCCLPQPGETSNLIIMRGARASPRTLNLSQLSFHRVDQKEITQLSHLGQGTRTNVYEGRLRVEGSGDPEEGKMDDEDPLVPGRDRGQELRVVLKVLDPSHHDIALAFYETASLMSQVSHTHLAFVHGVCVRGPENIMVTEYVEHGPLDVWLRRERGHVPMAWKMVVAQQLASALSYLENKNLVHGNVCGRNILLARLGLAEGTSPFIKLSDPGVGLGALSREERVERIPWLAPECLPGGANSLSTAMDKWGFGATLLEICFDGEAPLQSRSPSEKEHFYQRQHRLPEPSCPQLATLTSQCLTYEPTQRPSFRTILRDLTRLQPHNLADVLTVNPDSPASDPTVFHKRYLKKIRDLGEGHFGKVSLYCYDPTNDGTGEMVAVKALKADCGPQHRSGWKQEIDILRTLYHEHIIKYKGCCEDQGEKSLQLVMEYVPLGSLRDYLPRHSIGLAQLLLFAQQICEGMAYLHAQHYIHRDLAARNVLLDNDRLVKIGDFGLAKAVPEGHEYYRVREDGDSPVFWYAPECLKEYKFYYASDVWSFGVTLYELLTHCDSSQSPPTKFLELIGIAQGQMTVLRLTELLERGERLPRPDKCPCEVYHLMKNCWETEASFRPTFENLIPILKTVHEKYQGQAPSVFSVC
UniProt Q6PHR2: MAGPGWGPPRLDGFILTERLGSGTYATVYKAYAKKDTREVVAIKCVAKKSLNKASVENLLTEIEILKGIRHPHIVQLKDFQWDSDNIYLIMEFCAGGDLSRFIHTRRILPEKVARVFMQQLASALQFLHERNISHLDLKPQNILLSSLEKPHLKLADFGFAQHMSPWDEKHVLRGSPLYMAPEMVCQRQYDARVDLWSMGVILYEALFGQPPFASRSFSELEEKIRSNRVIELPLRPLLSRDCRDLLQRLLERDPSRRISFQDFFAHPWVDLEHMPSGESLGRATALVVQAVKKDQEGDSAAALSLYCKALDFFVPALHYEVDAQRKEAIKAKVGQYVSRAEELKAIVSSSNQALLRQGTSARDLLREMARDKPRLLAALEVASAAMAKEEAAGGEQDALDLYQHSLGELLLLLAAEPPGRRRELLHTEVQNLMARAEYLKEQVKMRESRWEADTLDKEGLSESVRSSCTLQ
UniProt P43403: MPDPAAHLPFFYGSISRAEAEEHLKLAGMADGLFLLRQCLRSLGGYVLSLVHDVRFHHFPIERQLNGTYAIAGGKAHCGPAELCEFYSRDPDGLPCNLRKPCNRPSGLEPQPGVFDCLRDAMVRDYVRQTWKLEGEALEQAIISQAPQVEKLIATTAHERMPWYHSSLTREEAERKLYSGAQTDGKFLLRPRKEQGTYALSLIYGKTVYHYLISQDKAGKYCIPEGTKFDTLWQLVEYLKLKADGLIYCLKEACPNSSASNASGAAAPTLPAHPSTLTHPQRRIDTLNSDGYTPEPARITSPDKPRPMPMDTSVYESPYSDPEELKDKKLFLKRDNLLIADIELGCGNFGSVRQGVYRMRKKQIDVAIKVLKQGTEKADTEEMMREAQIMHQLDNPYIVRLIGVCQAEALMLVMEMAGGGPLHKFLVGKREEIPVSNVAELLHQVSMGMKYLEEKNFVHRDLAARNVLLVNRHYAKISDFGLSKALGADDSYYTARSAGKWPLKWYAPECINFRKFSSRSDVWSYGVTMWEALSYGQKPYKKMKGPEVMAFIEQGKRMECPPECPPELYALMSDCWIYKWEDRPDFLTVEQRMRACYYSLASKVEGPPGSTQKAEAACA
UniProt P00519, whole entry: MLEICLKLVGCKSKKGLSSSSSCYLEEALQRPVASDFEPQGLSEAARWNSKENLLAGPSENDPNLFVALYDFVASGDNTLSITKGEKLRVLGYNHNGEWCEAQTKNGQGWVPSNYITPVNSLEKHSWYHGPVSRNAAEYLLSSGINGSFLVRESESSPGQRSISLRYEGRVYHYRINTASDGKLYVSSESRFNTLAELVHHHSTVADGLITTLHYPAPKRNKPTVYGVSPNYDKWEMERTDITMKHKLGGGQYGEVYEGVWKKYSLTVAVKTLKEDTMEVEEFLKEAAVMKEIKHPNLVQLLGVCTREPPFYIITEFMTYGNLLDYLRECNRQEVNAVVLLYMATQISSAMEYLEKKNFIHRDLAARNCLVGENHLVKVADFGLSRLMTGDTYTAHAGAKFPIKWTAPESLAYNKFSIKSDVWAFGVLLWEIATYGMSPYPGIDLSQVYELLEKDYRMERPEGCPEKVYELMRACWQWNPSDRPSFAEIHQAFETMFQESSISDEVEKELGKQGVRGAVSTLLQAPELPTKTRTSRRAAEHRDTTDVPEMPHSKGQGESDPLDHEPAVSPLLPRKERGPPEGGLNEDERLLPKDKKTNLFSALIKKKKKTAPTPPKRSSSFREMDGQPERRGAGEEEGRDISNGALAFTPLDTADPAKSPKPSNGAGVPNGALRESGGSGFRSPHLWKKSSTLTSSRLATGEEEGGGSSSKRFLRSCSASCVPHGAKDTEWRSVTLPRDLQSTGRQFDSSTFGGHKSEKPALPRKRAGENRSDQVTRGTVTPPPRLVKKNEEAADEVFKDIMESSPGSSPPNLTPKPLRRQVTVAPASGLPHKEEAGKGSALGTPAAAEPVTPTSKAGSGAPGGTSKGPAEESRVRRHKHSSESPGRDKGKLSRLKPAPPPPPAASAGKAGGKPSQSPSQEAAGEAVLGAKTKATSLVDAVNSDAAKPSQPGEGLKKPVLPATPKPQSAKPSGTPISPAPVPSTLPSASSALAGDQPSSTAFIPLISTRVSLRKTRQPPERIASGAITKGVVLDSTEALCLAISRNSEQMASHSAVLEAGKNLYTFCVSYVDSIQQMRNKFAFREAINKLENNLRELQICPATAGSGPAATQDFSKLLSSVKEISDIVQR
UniProt P31749: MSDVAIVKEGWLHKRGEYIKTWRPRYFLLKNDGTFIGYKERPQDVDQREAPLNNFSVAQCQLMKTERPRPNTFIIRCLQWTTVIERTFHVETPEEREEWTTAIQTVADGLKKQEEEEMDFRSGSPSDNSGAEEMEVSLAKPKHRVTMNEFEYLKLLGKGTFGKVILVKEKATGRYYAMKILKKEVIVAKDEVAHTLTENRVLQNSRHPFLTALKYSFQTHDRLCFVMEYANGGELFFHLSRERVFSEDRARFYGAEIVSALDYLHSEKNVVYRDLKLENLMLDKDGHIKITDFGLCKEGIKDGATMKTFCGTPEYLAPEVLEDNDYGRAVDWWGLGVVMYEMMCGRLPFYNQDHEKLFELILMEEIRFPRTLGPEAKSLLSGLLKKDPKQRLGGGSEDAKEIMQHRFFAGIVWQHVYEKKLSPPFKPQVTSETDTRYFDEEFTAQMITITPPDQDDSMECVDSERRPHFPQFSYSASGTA
UniProt Q9UQB9: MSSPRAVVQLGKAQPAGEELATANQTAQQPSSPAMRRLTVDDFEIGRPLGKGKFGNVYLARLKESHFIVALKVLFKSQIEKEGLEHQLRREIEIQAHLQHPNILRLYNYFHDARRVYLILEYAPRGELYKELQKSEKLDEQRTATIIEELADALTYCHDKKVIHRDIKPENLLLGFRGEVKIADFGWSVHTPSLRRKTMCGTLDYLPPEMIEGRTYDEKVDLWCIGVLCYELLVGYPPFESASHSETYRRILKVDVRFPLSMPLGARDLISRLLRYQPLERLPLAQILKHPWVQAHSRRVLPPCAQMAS
UniProt P51451: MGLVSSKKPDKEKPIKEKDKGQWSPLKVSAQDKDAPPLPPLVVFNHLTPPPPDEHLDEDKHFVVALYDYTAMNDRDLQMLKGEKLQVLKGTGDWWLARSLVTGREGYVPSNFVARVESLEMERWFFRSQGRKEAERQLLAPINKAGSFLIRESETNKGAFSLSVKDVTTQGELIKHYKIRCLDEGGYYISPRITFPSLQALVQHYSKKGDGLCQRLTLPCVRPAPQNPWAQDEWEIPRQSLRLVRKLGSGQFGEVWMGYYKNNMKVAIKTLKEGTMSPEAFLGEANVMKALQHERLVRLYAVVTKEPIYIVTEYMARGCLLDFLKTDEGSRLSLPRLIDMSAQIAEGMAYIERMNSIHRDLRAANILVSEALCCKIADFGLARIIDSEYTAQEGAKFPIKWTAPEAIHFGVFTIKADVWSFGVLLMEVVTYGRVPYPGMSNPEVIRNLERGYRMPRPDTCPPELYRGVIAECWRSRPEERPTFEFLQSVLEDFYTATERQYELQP
UniProt P51813: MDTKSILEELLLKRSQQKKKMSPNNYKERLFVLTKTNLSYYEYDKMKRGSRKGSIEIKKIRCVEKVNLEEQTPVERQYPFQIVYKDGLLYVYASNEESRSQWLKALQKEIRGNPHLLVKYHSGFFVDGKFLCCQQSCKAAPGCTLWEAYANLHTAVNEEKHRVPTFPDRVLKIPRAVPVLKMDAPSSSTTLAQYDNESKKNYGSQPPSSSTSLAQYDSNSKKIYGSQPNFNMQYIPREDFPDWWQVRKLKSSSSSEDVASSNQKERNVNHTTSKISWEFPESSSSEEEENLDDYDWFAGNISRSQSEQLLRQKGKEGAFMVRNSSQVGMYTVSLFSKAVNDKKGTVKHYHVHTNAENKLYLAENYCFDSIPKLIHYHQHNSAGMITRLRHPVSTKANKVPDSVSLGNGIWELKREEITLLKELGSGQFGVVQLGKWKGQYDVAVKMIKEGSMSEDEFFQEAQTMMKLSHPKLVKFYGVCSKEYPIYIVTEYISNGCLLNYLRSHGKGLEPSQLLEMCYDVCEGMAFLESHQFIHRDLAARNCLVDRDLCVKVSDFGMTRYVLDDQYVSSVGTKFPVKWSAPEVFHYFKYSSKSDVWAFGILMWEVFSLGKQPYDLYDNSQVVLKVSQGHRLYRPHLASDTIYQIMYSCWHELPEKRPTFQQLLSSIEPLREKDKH
UniProt Q06187: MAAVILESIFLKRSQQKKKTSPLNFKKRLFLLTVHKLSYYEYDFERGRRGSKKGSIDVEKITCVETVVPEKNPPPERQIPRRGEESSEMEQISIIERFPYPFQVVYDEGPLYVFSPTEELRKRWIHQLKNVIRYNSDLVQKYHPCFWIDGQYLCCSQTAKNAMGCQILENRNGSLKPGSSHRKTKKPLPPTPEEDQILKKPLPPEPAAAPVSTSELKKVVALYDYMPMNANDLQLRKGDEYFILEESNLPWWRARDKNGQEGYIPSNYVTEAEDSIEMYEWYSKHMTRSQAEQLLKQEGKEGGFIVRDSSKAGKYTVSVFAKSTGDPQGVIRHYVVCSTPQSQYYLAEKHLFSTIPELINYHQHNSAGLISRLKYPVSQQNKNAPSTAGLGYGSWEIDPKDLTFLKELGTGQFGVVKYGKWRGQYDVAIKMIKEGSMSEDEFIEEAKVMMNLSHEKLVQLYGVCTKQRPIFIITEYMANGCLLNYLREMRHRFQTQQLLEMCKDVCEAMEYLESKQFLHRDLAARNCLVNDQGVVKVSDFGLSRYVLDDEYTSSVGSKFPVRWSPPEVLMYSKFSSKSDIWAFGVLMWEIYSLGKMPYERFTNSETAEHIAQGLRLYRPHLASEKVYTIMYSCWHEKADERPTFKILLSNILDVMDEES

Columns and labels:
Conditions in all cases: K562; 2-18 h
[1] = biological target: STK38 (UniProt Q15208); assay: kinase-Nluc reporter destabilization hit call (1 = scored as downregulated) (binary); higher = compound decreases kinase abundance
[2] = biological target: SYK (UniProt P43405); assay: as above
[3] = biological target: TEC (UniProt P42680); assay: as above
[4] = biological target: TYK2 (UniProt P29597); assay: as above
[5] = biological target: ULK3 (UniProt Q6PHR2); assay: as above
[6] = biological target: YES1 (UniProt P07947); assay: as above
[7] = biological target: ZAK (UniProt Q9NYL2); assay: as above
[8] = biological target: ZAP70 (UniProt P43403); assay: as above
[9] = biological target: ABL1 (UniProt P00519); assay: number of time points (of 5) at which kinase-Nluc abundance scored as decreased, DMSO-normalised (count); higher = more persistent destabilization
[10] = biological target: AKT1 (UniProt P31749); assay: as above
[11] = biological target: ALK (UniProt Q9UM73); assay: as above
[12] = biological target: ARAF (UniProt P10398); assay: as above
[13] = biological target: AURKA (UniProt O14965); assay: as above
[14] = biological target: AURKB (UniProt Q96GD4); assay: as above
[15] = biological target: AURKC (UniProt Q9UQB9); assay: as above
[16] = biological target: BLK (UniProt P51451); assay: as above
[17] = biological target: BMX (UniProt P51813); assay: as above
[18] = biological target: BRAF (UniProt P15056); assay: as above
[19] = system: BRAF_V600E; assay: as above
[20] = biological target: BTK (UniProt Q06187); assay: as above

C[C@@H]1O[C@@H](O[C@H]2[C@H](OC(=O)[C@]34CCC(C)(C)C[C@H]3C3=CC[C@@H]5[C@@]6(C)C[C@H](O)[C@H](O[C@@H]7O[C@H](CO)[C@@H](O)[C@H](O)[C@H]7O)C(CO)(CO)[C@@H]6CC[C@@]5(C)[C@]3(C)C[C@H]4O)OC[C@H](O)[C@@H]2O)[C@H](O)[C@H](O)[C@H]1O[C@@H]1OC[C@@H](O)[C@H](O[C@@H]2OC[C@](O)(CO)[C@H]2O)[C@H]1O [Platycodin D] (10 µM)
1: number of time points [13]
0: number of time points [9] | number of time points [10] | number of time points [11] | number of time points [12] | number of time points [14] | number of time points [15] | number of time points [16] | number of time points [17] | number of time points [18] | number of time points [19] | number of time points [20]
inactive: kinase-Nluc reporter destabilization hit call [1] 0 | kinase-Nluc reporter destabilization hit call [2] 0 | kinase-Nluc reporter destabilization hit call [3] 0 | kinase-Nluc reporter destabilization hit call [4] 0 | kinase-Nluc reporter destabilization hit call [5] 0 | kinase-Nluc reporter destabilization hit call [6] 0 | kinase-Nluc reporter destabilization hit call [7] 0 | kinase-Nluc reporter destabilization hit call [8] 0

CN(C)C(=O)c1cc2cnc(Nc3ccc(NC(=O)C4(C(=O)Nc5ccc(F)cc5)CC4)cc3)nc2n1C1CCCC1 (2 µM)
inactive: kinase-Nluc reporter destabilization hit call [1] 0 | kinase-Nluc reporter destabilization hit call [2] 0 | kinase-Nluc reporter destabilization hit call [3] 0 | kinase-Nluc reporter destabilization hit call [4] 0 | kinase-Nluc reporter destabilization hit call [5] 0 | kinase-Nluc reporter destabilization hit call [6] 0 | kinase-Nluc reporter destabilization hit call [7] 0 | kinase-Nluc reporter destabilization hit call [8] 0
0: number of time points [9] | number of time points [10] | number of time points [11] | number of time points [12] | number of time points [13] | number of time points [14] | number of time points [15] | number of time points [16] | number of time points [17] | number of time points [18] | number of time points [19] | number of time points [20]

CCc1nc(C(N)=O)c(Nc2ccc(N3CCC(N4CCN(C)CC4)CC3)c(OC)c2)nc1NC1CCC(OC)CC1 (stereo not given) [EML4-ALK kinase inhibitor 1] (2.5 µM)
0: number of time points [9] | number of time points [10] | number of time points [11] | number of time points [12] | number of time points [13] | number of time points [14] | number of time points [15] | number of time points [16] | number of time points [17] | number of time points [18] | number of time points [19] | number of time points [20]
inactive: kinase-Nluc reporter destabilization hit call [1] 0 | kinase-Nluc reporter destabilization hit call [2] 0 | kinase-Nluc reporter destabilization hit call [3] 0 | kinase-Nluc reporter destabilization hit call [4] 0 | kinase-Nluc reporter destabilization hit call [5] 0 | kinase-Nluc reporter destabilization hit call [6] 0 | kinase-Nluc reporter destabilization hit call [7] 0 | kinase-Nluc reporter destabilization hit call [8] 0

CC(C)Cn1cc(C#N)c2cc(Oc3ccc(NC(=O)[C@@H]4CCCN4)cc3)ccc21 (10 µM)
0: number of time points [9] | number of time points [10] | number of time points [11] | number of time points [12] | number of time points [13] | number of time points [14] | number of time points [15] | number of time points [16] | number of time points [17] | number of time points [18] | number of time points [19] | number of time points [20]
inactive: kinase-Nluc reporter destabilization hit call [1] 0 | kinase-Nluc reporter destabilization hit call [2] 0 | kinase-Nluc reporter destabilization hit call [3] 0 | kinase-Nluc reporter destabilization hit call [4] 0 | kinase-Nluc reporter destabilization hit call [5] 0 | kinase-Nluc reporter destabilization hit call [6] 0 | kinase-Nluc reporter destabilization hit call [7] 0 | kinase-Nluc reporter destabilization hit call [8] 0

COc1cc(-c2cnc(N)c(-c3ccc(NC(=O)c4cn(CC5CCOCC5)cc(-c5ccc(C)cn5)c4=O)cc3F)c2)ccc1OC[C@H]1COCCO1 [DS-1205b (free base)] (10 µM)
inactive: kinase-Nluc reporter destabilization hit call [1] 0 | kinase-Nluc reporter destabilization hit call [2] 0 | kinase-Nluc reporter destabilization hit call [3] 0 | kinase-Nluc reporter destabilization hit call [4] 0 | kinase-Nluc reporter destabilization hit call [5] 0 | kinase-Nluc reporter destabilization hit call [6] 0 | kinase-Nluc reporter destabilization hit call [7] 0 | kinase-Nluc reporter destabilization hit call [8] 0
0: number of time points [9] | number of time points [10] | number of time points [11] | number of time points [12] | number of time points [13] | number of time points [14] | number of time points [15] | number of time points [16] | number of time points [17] | number of time points [18] | number of time points [19] | number of time points [20]

Cc1occ2c1C(=O)c1c(O)ccc(O)c1C2 (2.5 µM)
inactive: kinase-Nluc reporter destabilization hit call [1] 0 | kinase-Nluc reporter destabilization hit call [2] 0 | kinase-Nluc reporter destabilization hit call [3] 0 | kinase-Nluc reporter destabilization hit call [4] 0 | kinase-Nluc reporter destabilization hit call [5] 0 | kinase-Nluc reporter destabilization hit call [6] 0 | kinase-Nluc reporter destabilization hit call [7] 0 | kinase-Nluc reporter destabilization hit call [8] 0
0: number of time points [9] | number of time points [10] | number of time points [11] | number of time points [12] | number of time points [13] | number of time points [14] | number of time points [15] | number of time points [16] | number of time points [17] | number of time points [18] | number of time points [19] | number of time points [20]

Oc1ccc2ccccc2c1SSc1c(O)ccc2ccccc12 (10 µM)
inactive: kinase-Nluc reporter destabilization hit call [1] 0 | kinase-Nluc reporter destabilization hit call [2] 0 | kinase-Nluc reporter destabilization hit call [3] 0 | kinase-Nluc reporter destabilization hit call [4] 0 | kinase-Nluc reporter destabilization hit call [5] 0 | kinase-Nluc reporter destabilization hit call [6] 0 | kinase-Nluc reporter destabilization hit call [7] 0 | kinase-Nluc reporter destabilization hit call [8] 0
0: number of time points [9] | number of time points [10] | number of time points [11] | number of time points [12] | number of time points [13] | number of time points [14] | number of time points [15] | number of time points [16] | number of time points [17] | number of time points [18] | number of time points [19] | number of time points [20]

Cc1ncc(F)c(Nc2n[nH]c3c2CN(C(=O)N2C[C@@H](C)N(CC4CCOCC4)C[C@@H]2C)C3(C)C)n1 (10 µM)
0: number of time points [9] | number of time points [10] | number of time points [11] | number of time points [12] | number of time points [13] | number of time points [14] | number of time points [15] | number of time points [16] | number of time points [17] | number of time points [18] | number of time points [19] | number of time points [20]
inactive: kinase-Nluc reporter destabilization hit call [1] 0 | kinase-Nluc reporter destabilization hit call [2] 0 | kinase-Nluc reporter destabilization hit call [3] 0 | kinase-Nluc reporter destabilization hit call [4] 0 | kinase-Nluc reporter destabilization hit call [5] 0 | kinase-Nluc reporter destabilization hit call [6] 0 | kinase-Nluc reporter destabilization hit call [7] 0 | kinase-Nluc reporter destabilization hit call [8] 0

Nc1n[nH]c(N)c1N=Nc1ccc(O)cc1 (10 µM)
0: number of time points [9] | number of time points [10] | number of time points [11] | number of time points [12] | number of time points [13] | number of time points [14] | number of time points [15] | number of time points [16] | number of time points [17] | number of time points [18] | number of time points [19] | number of time points [20]
inactive: kinase-Nluc reporter destabilization hit call [1] 0 | kinase-Nluc reporter destabilization hit call [2] 0 | kinase-Nluc reporter destabilization hit call [3] 0 | kinase-Nluc reporter destabilization hit call [4] 0 | kinase-Nluc reporter destabilization hit call [5] 0 | kinase-Nluc reporter destabilization hit call [6] 0 | kinase-Nluc reporter destabilization hit call [7] 0 | kinase-Nluc reporter destabilization hit call [8] 0

O=C(Nc1nccs1)C(c1cc(F)ccc1O)N1Cc2ccccc2C1=O (stereo not given) (10 µM)
inactive: kinase-Nluc reporter destabilization hit call [1] 0 | kinase-Nluc reporter destabilization hit call [2] 0 | kinase-Nluc reporter destabilization hit call [3] 0 | kinase-Nluc reporter destabilization hit call [4] 0 | kinase-Nluc reporter destabilization hit call [5] 0 | kinase-Nluc reporter destabilization hit call [6] 0 | kinase-Nluc reporter destabilization hit call [7] 0 | kinase-Nluc reporter destabilization hit call [8] 0
0: number of time points [9] | number of time points [10] | number of time points [11] | number of time points [12] | number of time points [13] | number of time points [14] | number of time points [15] | number of time points [17] | number of time points [18] | number of time points [19] | number of time points [20]
1: number of time points [16]

Entries from the list above containing an NH in an aromatic ring, in the order listed:
Cc1ncc(F)c(Nc2n[nH]c3c2CN(C(=O)N2C[C@@H](C)N(CC4CCOCC4)C[C@@H]2C)C3(C)C)n1 (10 µM)
0: number of time points [9] | number of time points [10] | number of time points [11] | number of time points [12] | number of time points [13] | number of time points [14] | number of time points [15] | number of time points [16] | number of time points [17] | number of time points [18] | number of time points [19] | number of time points [20]
inactive: kinase-Nluc reporter destabilization hit call [1] 0 | kinase-Nluc reporter destabilization hit call [2] 0 | kinase-Nluc reporter destabilization hit call [3] 0 | kinase-Nluc reporter destabilization hit call [4] 0 | kinase-Nluc reporter destabilization hit call [5] 0 | kinase-Nluc reporter destabilization hit call [6] 0 | kinase-Nluc reporter destabilization hit call [7] 0 | kinase-Nluc reporter destabilization hit call [8] 0

Nc1n[nH]c(N)c1N=Nc1ccc(O)cc1 (10 µM)
0: number of time points [9] | number of time points [10] | number of time points [11] | number of time points [12] | number of time points [13] | number of time points [14] | number of time points [15] | number of time points [16] | number of time points [17] | number of time points [18] | number of time points [19] | number of time points [20]
inactive: kinase-Nluc reporter destabilization hit call [1] 0 | kinase-Nluc reporter destabilization hit call [2] 0 | kinase-Nluc reporter destabilization hit call [3] 0 | kinase-Nluc reporter destabilization hit call [4] 0 | kinase-Nluc reporter destabilization hit call [5] 0 | kinase-Nluc reporter destabilization hit call [6] 0 | kinase-Nluc reporter destabilization hit call [7] 0 | kinase-Nluc reporter destabilization hit call [8] 0
